In PubChem BioAssay AID1347426 (Functional Genomics Laboratory (NCATS/FGL), 2020):
About 1,400 (4.5%) of roughly 31,000 sequences were called active.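 How the source made its calls: active means median seed-adjusted z-score above 1 or below -1; inactive means the rest.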 The list shows a part of the results.

Assay: Novel Modifiers of Survival Motor Neuron (SMN) Protein: Gene Identification via Genome-wide siRNA Screen;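 further: luminescence tracks full-length SMN protein made from the SMN2 reporter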
Settings: HEK293T SMN2-luciferase reporter, siRNA knockdown, 72 h; actives lie on both sides
Procedure, shortened: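 Luciferase signal, proportional to full-length SMN made from an SMN2 cDNA reporter in stable HEK293T cells, was read 72 h after siRNA reverse transfection. Values were expressed as MAD scores after non-targeting-control normalization and log10 conversion; seed analysis flagged off-targets.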

Row | Sequence | median seed-adjusted z-score
1 | GGAGAGUGUAGAUCCCAAATT against IL1B | inactive: -0.21
2 | GCAGCGAGAAUUUCGACGATT against CRABP1 | inactive: -0.625
3 | GGGCUAAACUCUCCAAGCUTT against SLC46A1 | inactive: -0.00763
4 | GCAUCAUCGUCUACCGCAATT against ADAM8 | inactive: -0.407
5 | CCAUCGAUGUCUCUGCUAUTT against ABCA1 | active: -1.27
6 | GCACUAAGAGUGACGUGUATT against PSKH1 | active: -2.03
7 | GCAACGACAUCAUUGUUCUTT against CTNNA3 | inactive: 0.249
8 | UAACCACUCUGUGCAAGUATT against VEGFB | inactive: 0
9 | GGUGGAUUCCUAACUAUGATT against GPR34 | inactive: 0.529
10 | GAUGAUUGGUGUGACGGAATT against AGPAT4 | inactive: 0.149
11 | GGCCUUUGGUGAAAACCGUTT against CLDN11 | inactive: 0.268
12 | CCAGCGAUACCUACAAGAATT against CAPN2 | inactive: -0.0828
13 | GCAGUGAAGGUACUACAGATT against SGK2 | inactive: 0.306
14 | GGCUUAUGACUGCCUAUAATT against SEL1L | inactive: 0.438
15 | GGACUUUGAUUGCUAGCAATT against CTRC | inactive: -0.104
16 | GGGCAAUGCUGGAAUGGUUTT against JRKL | inactive: -0.227
17 | GGUCCCUAAUGAGCACAGATT against SLC12A7 | inactive: -0.0309
18 | GACCGUUCAGUAUAUACUATT against ATP6V1H | inactive: 0.146
19 | CAGAGGCUGGUGCACAGUUTT against SPRR4 | inactive: 0.211
20 | GUACAUCGAGUGAAGAUUATT against ROD1 | inactive: 0.42
21 | CGAAGAUCAUAUCUACCAATT against TCEA3 | inactive: -0.28
22 | CUACACCUGUUUCAACAGATT against USPL1 | active: -1.87

Row | Sequence | median seed-adjusted z-score
23 | CUCUGACUUUGACUACUCATT against TFF1 | inactive: -0.469
24 | GCCAUGAACCGCCACAACATT against WNT3A | inactive: -0.66
25 | GGAUAGCACAUGAUACAGATT against GAN | active: -1.07
26 | GCAUAGAAAUCCAAAGUAUTT against CYP39A1 | inactive: 0.196
27 | GGCGAAGCAUGAAGCGGAATT against VDR | inactive: -0.031
28 | GAUCGUAUGCAGAAGGAAATT against ACTC1 | inactive: 0
29 | CGUGAACCUAGAAACCCAATT against IL27RA | inactive: 0.887
30 | GAGCUCAACGUACAAAAGATT against STX11 | inactive: -0.518
31 | GGAUAUCACUACUUUAACUTT against NDUFS4 | inactive: 0.336
32 | GACUAAAGCUUGUCUCAGATT against HARS | inactive: -0.722
33 | CCACCAUGAUGUUCGGGUATT against CDC20 | inactive: 0.191
34 | CCUCUUCCACCGCUACUUCTT against TREX2 | inactive: -0.918
35 | CGGGAGAACGGGAUCAAUATT against DHPS | inactive: 0.0662
36 | CCAGGUCUUUCUUAACGUATT against EMX1 | inactive: -0.689
37 | AGAUCGCAGAGAACAACGATT against BIN1 | inactive: 0
38 | GGAAGAAUCGGAAAAACAATT against ZBTB46 | inactive: 0.0546
39 | UCUUGGACUUGUCCAAGUATT against LSM7 | inactive: -0.45
40 | GGAUGUGGAUGGAACAACATT against ITGA7 | inactive: 0.13
41 | CAAUGAGAAGUUUUACGAUTT against ZBED4 | inactive: -0.553
42 | GGAGGGCAGGUUACAAAGATT against ZKSCAN4 | inactive: 0.0558
43 | GGGCAGAAUUGGAAUGCGATT against CNTNAP4 | inactive: -0.414
44 | GCUGCUUUGUUCUAGGUCATT against LRIT3 | inactive: 0.0324

Row | Sequence | median seed-adjusted z-score
45 | GCAGUACGGAAGCUACCGATT against SS18L1 | inactive: -0.174
46 | GGCUAUACAGGGUAGACAATT against PXDNL | inactive: -0.186
47 | CCGAUCCAUUAUCAACAUATT against ARSJ | inactive: -0.0978
48 | CAGCGGUUUUGAAUGACUATT against IKZF3 | inactive: 0.0181
49 | GGUUCCCACUUAAAAAUUATT against BID | inactive: 0.342
50 | CCGGGACCCUGUUCAAGAATT against NAGS | inactive: 0.0484
51 | GAGUUAGAGGACAACUUAATT against ZFP30 | inactive: 0.211
52 | GCAGAAAACUCACCCGAGATT against PCDHB7 | inactive: 0.365
53 | CUAUCAUCGAGAUUGCAGATT against ARHGAP30 | inactive: 0.0946
54 | CGUUUGUAGAUGACAAUGATT against NFE2L2 | inactive: -0.596
55 | GCACUUUACUAGGUCUAGATT against NANOS1 | inactive: 0.369
56 | CCUGUGGUUUGCUAUCUAATT against SLC24A5 | inactive: -0.166
57 | GAGCUACAUUACUAAGUCATT against ZNF223 | inactive: 0.367
58 | GGCUGGAGCGUGAUGUAUATT against CYP26C1 | inactive: -0.276
59 | CCCUAAUUCUUCGUCAUAATT against AMIGO2 | inactive: -0.258
60 | GGCUAGCUGAUAUCAGUUUTT against DDX31 | inactive: 0.0144
61 | GCUUUUCGGAUGCCCGAGATT against LRRN2 | inactive: 0.324
62 | GGCUGUACAAGCUCACGUATT against MTTP | inactive: 0
63 | CCUCACACUUGAUUCAGUUTT against RPP38 | inactive: 0.07
64 | GUUCAGACCUGAUUAGGCATT against ZNF623 | inactive: 0.272
65 | GACCUUCCACAGUACAUCATT against MAST3 | inactive: -0.642
66 | GCAGAGAACUGGUUCCGAATT against ZNF512B | inactive: 0.212

Row | Sequence | median seed-adjusted z-score
67 | CAUAGAAAAUAUGCAGUUUTT against MPZL1 | inactive: 0.376
68 | GAGCUUCGCUUGCAAGAAUTT against AQP11 | inactive: -0.0455
69 | GGAAGUUCAUGCCUCUGGATT against UBA7 | active: 2.41
70 | GGCUGCAACUGUAUAUCUATT against HAO1 | inactive: 0.421
71 | AAUUUAUACUGCCAUCUUATT against HSPA1A | inactive: -0.833
72 | GUCCAUAGAUGACAUCGAATT against ZC3H7B | inactive: -0.093
73 | CUGGUGUUCUUUGAACUGATT against TMED1 | inactive: 0
74 | CAGCGUAUUUGAGAAUUUATT against ATRX | inactive: -0.158
75 | UGAAGAAAGCGGAAAAGAATT against CSTF3 | inactive: 0.0879
76 | CGGACAUUCUCAUCAAUGATT against HTR3A | inactive: 0.37
77 | GGCUUGCUAGAGAAGUUUUTT against METAP1 | inactive: -0.139
78 | GAGUGGUACAGUUCGAACATT against SYNJ1 | inactive: 0
79 | CUAUUUCUCAAAAUGGAUATT against MPN2 | inactive: 0.108
80 | GCAGCUCCAGUAACCUCAATT against ZNF683 | inactive: -0.452
81 | CUUCGUAUGUUUACAAGAATT against GUCY2C | inactive: -0.0181
82 | GGAUCAAUACUCCAACAAATT against ZNF281 | active: 1.19
83 | GGAUUAAACUACAUCAAGATT against PTPN1 | inactive: 0.05
84 | GAGAGAUCAUUGCAAAGCATT against HNRNPM | inactive: 0.499
85 | CGAAUAGUAUGUCAGAUGATT against HIPK3 | inactive: -0.00424
86 | GAAAAUCAGGGAUGUAUUATT against ZNF140 | inactive: 0.587
87 | CUCUGAAGAUUGAUAUUCUTT against IFI16 | inactive: -0.0178
88 | CCUUGAUCAUCGACAUUCUTT against GIT1 | inactive: -0.307

Row | Sequence | median seed-adjusted z-score
89 | GGUAAGGUCAAAGCCCUAATT against RNASEL | inactive: 0
90 | GCUGUAACCUCUUCAUCUATT against BRUNOL6 | inactive: -0.542
91 | CACUUAAAGACAACCCAAATT against STARD4 | inactive: 0.173
92 | GGGACAAACCACAUUAGUATT against TRIM33 | inactive: 0.316
93 | CACACACACCAGCAAGAUATT against MAX | inactive: 0.0949
94 | GUACGAUAUAUAACAAUGATT against ANKRD30A | inactive: 0.259
95 | GGGAGAGAGAUUAAGAAGATT against PHF1 | inactive: -0.196
96 | UGGACUUCGUGGUUCAGCATT against SULT1A1 | inactive: -0.26
97 | GCUCUACUAUGAGAAUGAATT against CRHR2 | inactive: -0.211
98 | CUCCAUUGCUUGUAAAGCUTT against USP26 | inactive: -0.0505
99 | CAAUGGAGAUUCAACAGAATT against NME7 | inactive: -0.331
100 | GCCCAGAGACUAUGGAGUATT against PAQR4 | inactive: 0.316
101 | GGACCAUCGGGAUCAUCAATT against P2RX3 | inactive: -0.44
102 | CCCAAGUCAUUUAAAGUCATT against CYP1B1 | inactive: -0.261
103 | CCUUCGAGCUGCUAUUAAUTT against TLR10 | inactive: -0.363
104 | CCAGUUCAGUUCGAAGACATT against ZNF441 | inactive: 0.578
105 | GGACUGAUGCAGUGGAUUATT against SLC28A3 | inactive: -0.107
106 | ACAAAGUGUUUAAGCGGUUTT against ZNF714 | inactive: 0
107 | AGAGCAUCAUCAACCAGGUTT against STAR | inactive: 0.478
108 | CUACGACUUUUCCAAUAUATT against SLC6A4 | active: 1.43

Random excerpt: seven records from the list
Row | Sequence | median seed-adjusted z-score
18 | GACCGUUCAGUAUAUACUATT against ATP6V1H | inactive: 0.146
74 | CAGCGUAUUUGAGAAUUUATT against ATRX | inactive: -0.158
66 | GCAGAGAACUGGUUCCGAATT against ZNF512B | inactive: 0.212
91 | CACUUAAAGACAACCCAAATT against STARD4 | inactive: 0.173
29 | CGUGAACCUAGAAACCCAATT against IL27RA | inactive: 0.887
84 | GAGAGAUCAUUGCAAAGCATT against HNRNPM | inactive: 0.499
7 | GCAACGACAUCAUUGUUCUTT against CTNNA3 | inactive: 0.249
